Measurements as given in the supplement of paper PMC8104966.
Some of the results follow. Repeats in this data set agree poorly, so a single value says little.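 Fusion between ACE2-bearing and full-length-spike-bearing U2OS cells was measured by imaging as the percentage of nuclei with both cell types' fluorescent markers. An inhibitory hit is a non-toxic compound whose fusion z-score is below -3, more than three standard deviations beneath the plate's DMSO wells.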

System: U2OS ACE2 x SARS-CoV-2 spike co-culture
Experiment: cell-cell fusion (fraction fused) z-score vs plate DMSO control; higher = more fusion
Conditions: 30 µM; 5 h; toxicity class: non-toxic, passed QC

Compound | cell-cell fusion (z-score)
CN1C(C)(C)CCCC1(C)C.O=C(O)C(O)C(O)C(=O)O | inactive: 2.42
CN(C)CCOC(C)(c1ccccc1)c1ccccn1.O=C(O)CCC(=O)O (stereo unspecified) [Doxylamine succinate] | inactive: 2.18
Cc1oncc1C(=O)Nc1ccc(C(F)(F)F)cc1 | inactive: 0.768
Cc1oncc1C(=O)Nc1ccc(C(F)(F)F)cc1 [Leflunomide] | inactive: 2.52
CC(C)CCCC(C)NC(C)C.Cl (stereo unspecified) | inactive: 3.3
CC(=O)O[C@@]12CO[C@@H]1C[C@H](O)[C@@]1(C)C(=O)[C@H](O)C3=C(C)[C@@H](OC(=O)[C@H](O)[C@@H](NC(=O)OC(C)(C)C)c4ccccc4)C[C@@](O)([C@@H](OC(=O)c4ccccc4)[C@H]21)C3(C)C.O.O.O [Docetaxel trihydrate] | inactive: 1.4
O=C(CCCN1CCC(O)(c2ccc(Cl)cc2)CC1)c1ccc(F)cc1 [Haloperidol] | inactive: 2.12
O=C(CCCN1CCC(O)(c2ccc(Cl)cc2)CC1)c1ccc(F)cc1 | inactive: 2.01
COc1cc2c(cc1O)CC[C@@H]1[C@@H]2CC[C@]2(C)[C@@H](O)CC[C@@H]12 [2-methoxyestradiol] | inactive: 3.7
CS(=O)(=O)O.Oc1ccc(C2CNCCc3c2cc(O)c(O)c3Cl)cc1 (stereo unspecified) [Fenoldopam mesylate] | inactive: -2.19
CS(=O)(=O)O.Oc1ccc(C2CNCCc3c2cc(O)c(O)c3Cl)cc1 (stereo unspecified) | inactive: -1.98
CC(C(=O)O)c1ccc(-c2ccccc2)c(F)c1 (stereo unspecified) | inactive: 0.729
CNc1ccc(C(=O)CC(O)CCC(C)C2OC(=O)CC(O)CC(=O)CC(O)CC(O)CC(O)CC(O)CC3(O)CC(O)C(C(=O)OC)C(CC(O[C@@H]4O[C@H](C)[C@@H](O)[C@H](N)[C@@H]4O)/C=C/C=C/C=C/C=C/C=C/C=C/C=C/C2C)O3)cc1 (stereo partly specified) | inactive: 1.65
N[C@@H](Cc1c[nH]c2ccccc12)C(=O)O | inactive: 0.576
N[C@@H](Cc1c[nH]c2ccccc12)C(=O)O [L-Tryptophan] | inactive: -2.94
COCCNC(=O)COc1ccc(OCCNC[C@H](O)COc2ccccc2)cc1.Cl [ZD 7114 hydrochloride] | inactive: 2.08
COc1cc2c(cc1OC)C(=O)C(CC1CCN(Cc3ccccc3)CC1)C2.Cl (stereo unspecified) | inactive: 1.07
CC(=O)[C@H]1CCC2C3C=CC4=CC(=O)CC[C@@]4(C)C3CC[C@@]21C (stereo partly specified) | inactive: 3.37

Reformatted: results already given
CN1C(C)(C)CCCC1(C)C.O=C(O)C(O)C(O)C(=O)O
  cell-cell fusion (z-score): inactive: 2.42
CNc1ccc(C(=O)CC(O)CCC(C)C2OC(=O)CC(O)CC(=O)CC(O)CC(O)CC(O)CC(O)CC3(O)CC(O)C(C(=O)OC)C(CC(O[C@@H]4O[C@H](C)[C@@H](O)[C@H](N)[C@@H]4O)/C=C/C=C/C=C/C=C/C=C/C=C/C=C/C2C)O3)cc1 (stereo partly specified)
  cell-cell fusion (z-score): inactive: 1.65

Going on with the list:

Compound | cell-cell fusion (z-score)
CC(=O)O[C@H]1CC2CCC3C(CC[C@@]4(C)C3C[C@H]([N+]3(C)CCCCC3)[C@@H]4OC(C)=O)[C@@]2(C)C[C@@H]1[N+]1(C)CCCCC1.[Br-].[Br-] (stereo partly specified) | inactive: 2.36
O=C(O)[C@]1(O)C[C@@H](O)[C@@H](O)[C@H](O)C1 | inactive: 2.2
Cc1ccccc1OCC(O)CO (stereo unspecified) | inactive: 2.82
S=C=NCc1ccccc1 | inactive: 3.05
CC(=O)OCC(=O)[C@@]1(O)CCC2C3CCC4=CC(=O)C=CC4(C)C3[C@@H](O)C[C@@]21C (stereo partly specified) | inactive: -0.411
COc1cc2c(cc1C=O)OCO2 | inactive: 1.25
COc1cc2c(cc1OC)[C@H]1C[C@@H](OC(=O)[C@@H](N)C(C)C)[C@H](CC(C)C)CN1CC2 [Valbenazine] | inactive: 1.87
Cc1ncc(C[n+]2csc(CCO)c2C)c(O)n1.Cl.[Cl-] | inactive: 2.62
Cl.O=C(O)C1=CCCN(CCON=C(c2ccccc2)c2ccccc2)C1 [NO-711 hydrochloride] | inactive: 1.59
Cc1cc(CC(=O)O)n(C)c1C(=O)c1ccc(Cl)cc1 | inactive: 3.05
CC1(C)CC23C(=O)CCC(O)C2(C)CCC13 (stereo unspecified) | inactive: 1.94
Cl.Cl.OCCN1CCN(CCCN2c3ccccc3C=Cc3ccccc32)CC1 [Opipramol dihydrochloride] | inactive: 0.971
CC(C)NC[C@H](O)COc1cccc2ccccc12.Cl | inactive: 1.9
Cl.Oc1ccc2c3c1O[C@H]1c4[nH]c5ccccc5c4C[C@@]4(O)C(C2)N(CC2CC2)CCC314 (stereo partly specified) [Naltrindole hydrochloride] | inactive: 1.38
CC(C)(C)NC[C@H](O)COc1nsnc1N1CCOCC1.O=C(O)/C=C\C(=O)O [Timolol Maleate] | inactive: 2.44
NC[C@@H]1O[C@H](O[C@@H]2[C@@H](CO)OC(O[C@@H]3[C@@H](O)[C@H](N)C[C@H](N)[C@H]3O[C@H]3O[C@H](CO)[C@@H](O)[C@H](O)[C@H]3N)[C@@H]2O)[C@H](N)[C@@H](O)[C@@H]1O.O=S(=O)(O)O (stereo partly specified) | inactive: 2.5
O=S1(=O)OC(c2ccc(O)cc2)(c2ccc(O)cc2)c2ccccc21 | inactive: 3.32
CCCCC1(COC(=O)CCC(=O)O)C(=O)N(c2ccccc2)N(c2ccccc2)C1=O | inactive: 1.75
